Laboratory results: PubChem BioAssay AID504791 (Drosophila RNAi Screening Center, 2011)
The deposit covers about 23,000 reagents; below is an unselected part of those that have a named target and a result. Of all reagents, 199 (0.86%) got an active call. 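Plate-scaled ratios behind the calls are not deposited; printed light signals are raw; many rows marked increased or decreased are still called inactive.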 The numbers tell different reagents against one gene apart. Names joined by + are all predicted targets of the reagent. No sequences are given here. Not stated in the record: the direction of the score.

Aim: 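Genes whose knock-down strengthens or weakens small-RNA reporter silencing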 (primary screen)
Cells: Drosophila S2-derived reporter cells
Knock-down reagent: long dsRNA against Drosophila genes, about 150-250 ng dsRNA per well (siRNA assay); about 80-120 ng (miRNA assay)
Timing: about 5 days (siRNA assay); about 4 days (miRNA assay)
Conditions: copper sulfate induction of reporters: 25 µM (siRNA assay); 200 mM stated (miRNA assay), 1-2 days before reading
Measurement: 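Per-well ratio of Renilla over firefly light, expressed relative to that plate's average ratio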
Active means: 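a well was a first-pass pick when its plate-scaled ratio rose above 1.5 (siRNA assay) or 1.6 (miRNA assay), or dropped below 0.6; a gene counted only if two separate dsRNAs agreed on retest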

no.	Gene	reagent no.	stable assay Renilla, run 1 (luminescence)	stable assay firefly, run 1 (luminescence)	Call
1	CG10561	1	86776	1.15e6	inactive
2	CG11379	1	7023	4.22e5	inactive
3	Moe	1	7887	4.70e5	inactive
4	DAT	1	6563	3.12e5	inactive
5	Tep5Psi	1	7256	3.51e5	inactive
6	Tep5Psi	2	6104	3.58e5	inactive
7	CG4053	1	2972	2.44e5	inactive
8	fax	1	8751	3.00e5	inactive
9	ebd2	1	8235	3.46e5	inactive
10	Mkp3	1	10316	3.87e5	inactive
11	Mkp3	2	7802	4.73e5	inactive
12	CG7789	1	8327	4.35e5	inactive
13	scpr-A + scpr-C	1	5592	3.94e5	inactive
14	Boh1	1	7333	5.07e5	inactive
15	CG11828	1	5856	3.53e5	inactive
16	CG11828	2	3851	3.85e5	inactive
17	Jon65Ai	1	6399	4.13e5	inactive
18	Zip42C.2	1	5579	3.21e5	inactive
19	CG10126	1	8354	4.07e5	inactive
20	CG17493	1	6059	3.63e5	inactive
21	Ugt317A1	1	6184	4.17e5	inactive
22	CG17807	1	50374	1.11e6	inactive
23	RtGEF	1	7204	5.53e5	inactive
24	RtGEF	2	9153	5.14e5	inactive
25	Dscam1	1	5459	4.49e5	inactive
26	Dscam1	2	4000	3.59e5	inactive
27	Dscam1	3	7201	3.43e5	inactive
28	Dscam1	4	9010	4.38e5	inactive
29	Dscam1	5	8951	6.79e5	inactive
30	CG6659	1	8878	6.36e5	inactive
31	CG11041	1	7422	4.31e5	inactive
32	CG7275	1	7656	3.24e5	inactive
33	CG12011	1	5631	3.43e5	inactive
34	CG34459	1	6995	4.38e5	inactive
35	CG7943	1	8588	3.48e5	inactive
36	CG13674	1	7579	4.89e5	inactive

The list goes on, starting with the last 6 of the part before.
no.	Gene	reagent no.	stable assay Renilla, run 1 (luminescence)	stable assay firefly, run 1 (luminescence)	Call
31	CG11041	1	7422	4.31e5	inactive
32	CG7275	1	7656	3.24e5	inactive
33	CG12011	1	5631	3.43e5	inactive
34	CG34459	1	6995	4.38e5	inactive
35	CG7943	1	8588	3.48e5	inactive
36	CG13674	1	7579	4.89e5	inactive
37	CG18258	1	5811	4.46e5	inactive
38	CG43861	1	6434	3.94e5	inactive
39	ppk27	1	5914	3.98e5	inactive
40	ppk27	2	8811	5.61e5	inactive
41	CG13285	1	5579	4.09e5	inactive
42	CG43338	1	9172	4.34e5	inactive
43	Mur89F	1	6984	3.38e5	inactive
44	CG14298	1	7585	5.30e5	inactive
45	ND-B17.2	1	6731	4.00e5	inactive
46	CG13324	1	6318	4.26e5	inactive
47	CG15651	1	6787	2.76e5	inactive
48	CG3420	1	6523	4.34e5	inactive
49	CG8860	1	5983	3.62e5	inactive
50	cert	1	7885	4.92e5	inactive
51	Dhps	1	7023	3.85e5	inactive
52	CG18563	1	8791	5.01e5	inactive
53	FucTA	1	7206	2.88e5	inactive
54	CG12826	1	6424	3.56e5	inactive
55	drm	1	7934	4.44e5	inactive
56	CG7135	1	6567	5.07e5	inactive
57	Unr	1	8658	4.01e5	inactive
